Experimental data reported in US20220268780A1, “METHODS OF PREDICTING ENDOMETRIAL RECEPTIVITY” (HUDSON INSTITUTE OF MEDICAL RESEARCH, priority 2019, published 2022).

Test system: human endometrial epithelial cells (HEECs)
Assay: LC-MS/MS analysis of plasma membrane-enriched proteins of HEECs
Conditions: for Total unique peptides, Samples 1: sample 1, proliferative phase; for Total unique peptides, Samples 2: sample 2, proliferative phase; for Total unique peptides, Samples 3: sample 3, proliferative phase

Molecule | Total unique peptides, Samples 1 | Total unique peptides, Samples 2 | Total unique peptides, Samples 3
Catenin beta-1 (protein, UniProt P35222 2-781, looked up) Catenin beta-1: ATQADLMELDMAMEPDRKAAVSHWQQQSYLDSGIHSGATTTAPSLSGKGNPEEEDVDTSQVLYEWEQGFSQSFTQEQVADIDGQYAMTRAQRVRAAMFPETLDEGMQIPSTQFDAAHPTNVQRLAEPSQMLKHAVVNLINYQDDAELATRAIPELTKLLNDEDQVVVNKAAVMVHQLSKKEASRHAIMRSPQMVSAIVRTMQNTNDVETARCTAGTLHNLSHHREGLLAIFKSGGIPALVKMLGSPVDSVLFYAITTLHNLLLHQEGAKMAVRLAGGLQKMVALLNKTNVKFLAITTDCLQILAYGNQESKLIILASGGPQALVNIMRTYTYEKLLWTTSRVLKVLSVCSSNKPAIVEAGGMQALGLHLTDPSQRLVQNCLWTLRNLSDAATKQEGMEGLLGTLVQLLGSDDINVVTCAAGILSNLTCNNYKNKMMVCQVGGIEALVRTVLRAGDREDITEPAICALRHLTSRHQEAEMAQNAVRLHYGLPVVVKLLHPPSHWPLIKATVGLIRNLALCPANHAPLREQGAIPRLVQLLVRAHQDTQRRTSMGGTQQQFVEGVRMEEIVEGCTGALHILARDVHNRIVIRGLNTIPLFVQLLYSPIENIQRVAAGVLCELAQDKEAAEAIEAEGATAPLTELLHSRNEGVATYAAAVLFRMSEDKPQDYKKRLSVELTSSLFRTEPMAWNETADLGLDIGAQGEPLGYRQDDPSYRSFHSGGYGQDALGMDPMMEHEMGGHHPGADYPVDGLPDLGHAQDLMDGLPPGDSNQLAWFDTDL | 8 | 8 | 2
Plasma membrane calcium-transporting ATPase 4 (protein, UniProt P23634 1-1241, looked up) Plasma membrane …: MTNPSDRVLPANSMAESREGDFGCTVMELRKLMELRSRDALTQINVHYGGVQNLCSRLKTSPVEGLSGNPADLEKRRQVFGHNVIPPKKPKTFLELVWEALQDVTLIILEIAAIISLVLSFYRPAGEENELCGQVATTPEDENEAQAGWIEGAAILFSVIIVVLVTAFNDWSKEKQFRGLQCRIEQEQKFSIIRNGQLIQLPVAEIVVGDIAQVKYGDLLPADGILIQGNDLKIDESSLTGESDHVKKSLDKDPMLLSGTHVMEGSGRMVVTAVGVNSQTGIILTLLGVNEDDEGEKKKKGKKQGVPENRNKAKTQDGVALEIQPLNSQEGIDNEEKDKKAVKVPKKEKSVLQGKLTRLAVQIGKAGLLMSALTVFILILYFVIDNFVINRRPWLPECTPIYIQYFVKFFIIGITVLVVAVPEGLPLAVTISLAYSVKKMMKDNNLVRHLDACETMGNATAICSDKTGTLTMNRMTVVQAYIGGIHYRQIPSPDVFLPKVLDLIVNGISINSAYTSKILPPEKEGGLPRQVGNKTECALLGFVTDLKQDYQAVRNEVPEEKLYKVYTFNSVRKSMSTVIRNPNGGFRMYSKGASEIILRKCNRILDRKGEAVPFKNKDRDDMVRTVIEPMACDGLRTICIAYRDFDDTEPSWDNENEILTELTCIAVVGIEDPVRPEVPDAIAKCKQAGITVRMVTGDNINTARAIATKCGILTPGDDFLCLEGKEFNRLIRNEKGEVEQEKLDKIWPKLRVLARSSPTDKHTLVKGIIDSTVGEHRQVVAVTGDGTNDGPALKKADVGFAMGIAGTDVAKEASDIILTDDNFTSIVKAVMWGRNVYDSISKFLQFQLTVNVVAVIVAFTGACITQDSPLKAVQMLWVNLIMDTFASLALATEPPTESLLKRRPYGRNKPLISRTMMKNILGHAFYQLIVIFILVFAGEKFFDIDSGRKAPLHSPPSQHYTIVFNTFVLMQLFNEINSRKIHGEKNVFSGIYRNIIFCSVVLGTFICQIFIVEFGGKPFSCTSLSLSQWLWCLFIGIGELLWGQFISAIPTRSLKFLKEAGHGTTKEEITKDAEGLDEIDHAEMELRRGQILWFRGLNRIQTQIDVINTFQTGASFKGVLRRQNMGQHLDVKLVPSSSYIKVVKAFHSSLHESIQKPYNQKSIHSFMTHPEFAIEEELPRTPLLDEEEEENPDKASKFGTRVLLLDGEVTPYANTNNNAVDCNQVQLPQSDSSLQSLETSV | 7 | 7 | 4
Vinculin (protein, UniProt P18206 1-1134, looked up) Vinculin: MPVFHTRTIESILEPVAQQISHLVIMHEEGEVDGKAIPDLTAPVAAVQAAVSNLVRVGKETVQTTEDQILKRDMPPAFIKVENACTKLVQAAQMLQSDPYSVPARDYLIDGSRGILSGTSDLLLTFDEAEVRKIIRVCKGILEYLTVAEVVETMEDLVTYTKNLGPGMTKMAKMIDERQQELTHQEHRVMLVNSMNTVKELLPVLISAMKIFVTTKNSKNQGIEEALKNRNFTVEKMSAEINEIIRVLQLTSWDEDAWASKDTEAMKRALASIDSKLNQAKGWLRDPSASPGDAGEQAIRQILDEAGKVGELCAGKERREILGTCKMLGQMTDQVADLRARGQGSSPVAMQKAQQVSQGLDVLTAKVENAARKLEAMTNSKQSIAKKIDAAQNWLADPNGGPEGEEQIRGALAEARKIAELCDDPKERDDILRSLGEISALTSKLADLRRQGKGDSPEARALAKQVATALQNLQTKTNRAVANSRPAKAAVHLEGKIEQAQRWIDNPTVDDRGVGQAAIRGLVAEGHRLANVMMGPYRQDLLAKCDRVDQLTAQLADLAARGEGESPQARALASQLQDSLKDLKARMQEAMTQEVSDVFSDTTTPIKLLAVAATAPPDAPNREEVFDERAANFENHSGKLGATAEKAAAVGTANKSTVEGIQASVKTARELTPQVVSAARILLRNPGNQAAYEHFETMKNQWIDNVEKMTGLVDEAIDTKSLLDASEEAIKKDLDKCKVAMANIQPQMLVAGATSIARRANRILLVAKREVENSEDPKFREAVKAASDELSKTISPMVMDAKAVAGNISDPGLQKSFLDSGYRILGAVAKVREAFQPQEPDFPPPPPDLEQLRLTDELAPPKPPLPEGEVPPPRPPPPEEKDEEFPEQKAGEVINQPMMMAARQLHDEARKWSSKPGIPAAEVGIGVVAEADAADAAGFPVPPDMEDDYEPELLLMPSNQPVNQPILAAAQSLHREATKWSSKGNDIIAAAKRMALLMAEMSRLVRGGSGTKRALIQCAKDIAKASDEVTRLAKEVAKQCTDKRIRTNLLQVCERIPTISTQLKILSTVKATMLGRTNISDEESEQATEMLVHNAQNLMQSVKETVREAEAASIKIRTDAGFTLRWVRKTPWYQ | 17 | 26 | 20
Angiotensin-converting enzyme (protein, UniProt P12821 30-1306, looked up) Angiotensin-converting enzyme: LDPGLQPGNFSADEAGAQLFAQSYNSSAEQVLFQSVAASWAHDTNITAENARRQEEAALLSQEFAEAWGQKAKELYEPIWQNFTDPQLRRIIGAVRTLGSANLPLAKRQQYNALLSNMSRIYSTAKVCLPNKTATCWSLDPDLTNILASSRSYAMLLFAWEGWHNAAGIPLKPLYEDFTALSNEAYKQDGFTDTGAYWRSWYNSPTFEDDLEHLYQQLEPLYLNLHAFVRRALHRRYGDRYINLRGPIPAHLLGDMWAQSWENIYDMVVPFPDKPNLDVTSTMLQQGWNATHMFRVAEEFFTSLELSPMPPEFWEGSMLEKPADGREVVCHASAWDFYNRKDFRIKQCTRVTMDQLSTVHHEMGHIQYYLQYKDLPVSLRRGANPGFHEAIGDVLALSVSTPEHLHKIGLLDRVTNDTESDINYLLKMALEKIAFLPFGYLVDQWRWGVFSGRTPPSRYNFDWWYLRTKYQGICPPVTRNETHFDAGAKFHVPNVTPYIRYFVSFVLQFQFHEALCKEAGYEGPLHQCDIYRSTKAGAKLRKVLQAGSSRPWQEVLKDMVGLDALDAQPLLKYFQPVTQWLQEQNQQNGEVLGWPEYQWHPPLPDNYPEGIDLVTDEAEASKFVEEYDRTSQVVWNEYAEANWNYNTNITTETSKILLQKNMQIANHTLKYGTQARKFDVNQLQNTTIKRIIKKVQDLERAALPAQELEEYNKILLDMETTYSVATVCHPNGSCLQLEPDLTNVMATSRKYEDLLWAWEGWRDKAGRAILQFYPKYVELINQAARLNGYVDAGDSWRSMYETPSLEQDLERLFQELQPLYLNLHAYVRRALHRHYGAQHINLEGPIPAHLLGNMWAQTWSNIYDLVVPFPSAPSMDTTEAMLKQGWTPRRMFKEADDFFTSLGLLPVPPEFWNKSMLEKPTDGREVVCHASAWDFYNGKDFRIKQCTTVNLEDLVVAHHEMGHIQYFMQYKDLPVALREGANPGFHEAIGDVLALSVSTPKHLHSLNLLSSEGGSDEHDINFLMKMALDKIAFIPFSYLVDQWRWRVFDGSITKENYNQEWWSLRLKYQGLCPPVPRTQGDFDPGAKFHIPSSVPYIRYFVSFIIQFQFHEALCQAAGHTGPLHKCDIYQSKEAGQRLATAMKLGFSRPWPEAMQLITGQPNMSASAMLSYFKPLLDWLRTENELHGEKLGWPQYNWTPNSARSEGPLPDSGRVSFLGLDLDAQQARVGQWLLLFLGIALLVATLGLSQRLFSIRHRSLHRHSHGPQFGSEVELRHS | 2 | 1 | 2
Ras-related protein Ral-A (protein, UniProt P11233 1-203, looked up) Ras-related protein Ral-A: MAANKPKGQNSLALHKVIMVGSGGVGKSALTLQFMYDEFVEDYEPTKADSYRKKVVLDGEEVQIDILDTAGQEDYAAIRDNYFRSGEGFLCVFSITEMESFAATADFREQILRVKEDENVPFLLVGNKSDLEDKRQVSVEEAKNRAEQWNVNYVETSAKTRANVDKVFFDLMREIRARKMEDSKEKNGKKKRKSLAKRIRERC | 3 | 2 | 2
Adipocyte plasma membrane-associated protein (protein, UniProt Q9HDC9 2-416, looked up) Adipocyte plasma …: SEADGLRQRRPLRPQVVTDDDGQAPEAKDGSSFSGRVFRVTFLMLAVSLTVPLLGAMMLLESPIDPQPLSFKEPPLLLGVLHPNTKLRQAERLFENQLVGPESIAHIGDVMFTGTADGRVVKLENGEIETIARFGSGPCKTRDDEPVCGRPLGIRAGPNGTLFVADAYKGLFEVNPWKREVKLLLSSETPIEGKNMSFVNDLTVTQDGRKIYFTDSSSKWQRRDYLLLVMEGTDDGRLLEYDTVTREVKVLLDQLRFPNGVQLSPAEDFVLVAETTMARIRRVYVSGLMKGGADLFVENMPGFPDNIRPSSSGGYWVGMSTIRPNPGFSMLDFLSERPWIKRMIFKLFSQETVMKFVPRYSLVLELSDSGAFRRSLHDPDGLVATYISEVHEHDGHLYLGSFRSPFLCRLSLQAV | 1 | 1 | 1
CD59 glycoprotein (protein, UniProt P13987 26-102, looked up) CD59 glycoprotein: LQCYNCPNPTADCKTAVNCSSDFDACLITKAGLQVYNKCWKFEHCNFNDVTTRLRENELTYYCCKKDLCNFNEQLEN | 3 | 2 | 4
Adenosylhomocysteinase (protein, UniProt P23526 2-432, looked up) Adenosylhomocysteinase: SDKLPYKVADIGLAAWGRKALDIAENEMPGLMRMRERYSASKPLKGARIAGCLHMTVETAVLIETLVTLGAEVQWSSCNIFSTQDHAAAAIAKAGIPVYAWKGETDEEYLWCIEQTLYFKDGPLNMILDDGGDLTNLIHTKYPQLLPGIRGISEETTTGVHNLYKMMANGILKVPAINVNDSVTKSKFDNLYGCRESLIDGIKRATDVMIAGKVAVVAGYGDVGKGCAQALRGFGARVIITEIDPINALQAAMEGYEVTTMDEACQEGNIFVTTTGCIDIILGRHFEQMKDDAIVCNIGHFDVEIDVKWLNENAVEKVNIKPQVDRYRLKNGRRIILLAEGRLVNLGCAMGHPSFVMSNSFTNQVMAQIELWTHPDKYPVGVHFLPKKLDEAVAEAHLGKLNVKLTKLTEKQAQYLGMSCDGPFKPDHYRY | 4 | 6 | 6
